Here are results for four molecules from PMC10874388, “Cyclic peptides discriminate BCL-2 and its clinical mutants from BCL-XL by engaging a single-residue discrepancy” (Nature Communications, 2024).

Protein sequences, listed by entry. Tags and fused reporters are not part of them. Lines headed by an entry give the natural chain unless they say otherwise; changes in a name come on top. Chains listed by the source or under a name are the forms on record and can include a tag or linker. Residues count along the entry.
UniProt Q07820, residues 152-308: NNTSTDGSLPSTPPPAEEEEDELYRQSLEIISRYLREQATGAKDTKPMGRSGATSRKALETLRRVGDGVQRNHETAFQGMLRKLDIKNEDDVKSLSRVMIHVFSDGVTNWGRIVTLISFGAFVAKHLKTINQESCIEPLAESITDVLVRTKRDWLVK
human BCL-XL (residues 1-210, with 27-81 and 210-233 removed) (Q07817, form named): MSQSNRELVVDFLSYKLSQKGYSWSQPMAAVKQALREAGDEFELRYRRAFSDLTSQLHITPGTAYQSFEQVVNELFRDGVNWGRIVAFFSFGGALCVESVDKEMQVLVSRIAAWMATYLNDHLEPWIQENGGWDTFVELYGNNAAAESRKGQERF
UniProt P10415: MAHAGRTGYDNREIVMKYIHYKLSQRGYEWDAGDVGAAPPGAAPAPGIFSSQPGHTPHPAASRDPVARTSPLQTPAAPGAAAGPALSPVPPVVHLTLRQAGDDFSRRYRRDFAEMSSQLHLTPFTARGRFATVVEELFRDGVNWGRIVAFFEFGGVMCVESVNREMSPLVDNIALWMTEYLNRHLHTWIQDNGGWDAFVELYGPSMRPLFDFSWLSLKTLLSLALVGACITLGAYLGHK

These are yes or no findings as the source states them, for the method shown. Some binding calls cover weakened binding; strength is not graded here.

Test [1] has as its target MCL-1 (residues 152-308) (human) (UniProt Q07820). As to the kind of experiment: SPR; Biacore T200; biotinylated proteins immobilised on a CAP sensor chip; peptides flowed in multiple cycles (25-12800 nM, depending on the peptides) at 30 uL/min; 10 mM PBS, 50 uM EDTA, 0.05% Tween-20, 25 °C; affinity fitting, 1:1 binding model; both purified. Background: In SPR one partner is held on a chip, and binding of the other changes the refractive index at the surface.

In test [2] the target is T1, BFL-1 (residues 1-151) (human) (UniProt Q16548).
T1 sequence (chain, biotin (biotinylated for SPR; site not stated)): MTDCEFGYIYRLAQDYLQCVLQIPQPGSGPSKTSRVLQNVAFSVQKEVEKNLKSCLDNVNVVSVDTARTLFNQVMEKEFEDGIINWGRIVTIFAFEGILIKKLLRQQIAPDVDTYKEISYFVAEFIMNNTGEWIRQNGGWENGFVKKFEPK
The test is described as above.

For test [3], the target named is human BCL-XL (residues 1-210, with 27-81 and 210-233 removed) (human) (UniProt Q07817). Put plainly: fluorescence polarisation; competition: cp2-F/BCL-2 complexes (20/400 nM) or cp3-F/BCL-XL complexes (20/600 nM) treated with unlabelled peptides from 1.0 nM to 30.0 uM; 1x PBS pH 7.4, room temperature, 10 min; Ki calculated from EC50, one-site competitive model; both purified.

Test [4] addresses chimeric human BCL-2 (residues 1-50 and 92-207, residues 35-50 replaced with residues 33-48 of BCL-XL) (human) (UniProt P10415+Q07817). Described as above.

B1: cp3 (peptide)
peptide: CPIRYPWDVEC
modifications: cyclised through a 2-aryl-4,5-dihydrothiazole (ADT) linker (cADT)
Regarding B1, the binding result in test [1] is given as “no binding (tested: 25-12800 nM, depending on the peptides)”; in test [2], “no binding (tested: 25-12800 nM, depending on the peptides)”.

B2: cp3-F (peptide)
peptide: CPIRYPWDVECGK
modifications: FITC on the amino group of the C-terminal lysine; modified by ClAc-3
Regarding B2, the binding entry in test [3] is “binds”.

B3: cp2-F (peptide)
peptide: CPIRYEWDEFCGK
modifications: FITC on the amino group of the C-terminal lysine; modified by ClAc-3
For the molecule B3, the binding result in test [4] is on record as “binds”.

B4: cp2 (peptide)
peptide: CPIRYEWDEFC
modifications: cyclised through a 2-aryl-4,5-dihydrothiazole (ADT) linker (cADT)
As for B4, the binding entry in test [1] was “no binding (tested: 25-12800 nM, depending on the peptides)”; in test [2] it was “no binding (tested: 25-12800 nM, depending on the peptides)”.
